Paper PMC7862700
This is a selection; strong and weak results do not stand in their true shares. For part of these data: At the low end of the ranking the order means little. This is one part of the list. For part of these data: The source does not settle which construct or isoform was used.

By UniProt entry, the sequences of proteins in these tests, tags left out. Where a name states a change or a piece, a line headed by the entry shows the natural chain unless it says otherwise.
UniProt P32519: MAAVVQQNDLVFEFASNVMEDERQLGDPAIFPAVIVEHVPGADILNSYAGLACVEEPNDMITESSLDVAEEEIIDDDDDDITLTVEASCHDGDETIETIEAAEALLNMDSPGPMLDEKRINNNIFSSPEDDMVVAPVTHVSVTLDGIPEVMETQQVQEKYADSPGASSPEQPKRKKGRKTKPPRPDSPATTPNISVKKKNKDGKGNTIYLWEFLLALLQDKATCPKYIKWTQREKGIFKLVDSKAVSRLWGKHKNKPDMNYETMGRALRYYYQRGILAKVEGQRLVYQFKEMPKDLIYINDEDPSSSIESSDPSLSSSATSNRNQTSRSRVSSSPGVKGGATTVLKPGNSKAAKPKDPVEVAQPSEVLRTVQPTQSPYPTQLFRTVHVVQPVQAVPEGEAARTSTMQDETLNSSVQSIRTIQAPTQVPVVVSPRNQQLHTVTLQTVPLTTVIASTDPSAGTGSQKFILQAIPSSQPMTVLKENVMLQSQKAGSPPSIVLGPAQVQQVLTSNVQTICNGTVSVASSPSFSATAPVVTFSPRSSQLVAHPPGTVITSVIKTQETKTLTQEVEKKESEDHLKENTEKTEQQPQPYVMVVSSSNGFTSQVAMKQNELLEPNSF
UniProt P50549: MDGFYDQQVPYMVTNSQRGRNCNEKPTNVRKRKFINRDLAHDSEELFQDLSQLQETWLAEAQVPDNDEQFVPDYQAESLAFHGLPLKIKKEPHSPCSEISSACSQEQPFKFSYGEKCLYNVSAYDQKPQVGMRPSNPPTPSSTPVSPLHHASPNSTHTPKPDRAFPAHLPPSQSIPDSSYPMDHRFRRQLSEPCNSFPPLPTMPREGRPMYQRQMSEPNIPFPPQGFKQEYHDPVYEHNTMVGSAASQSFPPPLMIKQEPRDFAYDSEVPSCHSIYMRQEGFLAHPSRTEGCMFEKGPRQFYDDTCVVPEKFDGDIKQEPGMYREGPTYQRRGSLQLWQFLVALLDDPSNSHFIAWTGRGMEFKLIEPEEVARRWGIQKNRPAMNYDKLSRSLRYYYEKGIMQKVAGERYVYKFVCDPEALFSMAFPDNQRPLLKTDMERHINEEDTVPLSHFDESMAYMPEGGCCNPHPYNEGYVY

Experiments:
Assay in all cases: DAPPL (digital affinity profiling via proximity ligation, sequencing)
Conditions in all cases: 10 mM Tris-HCl pH 7.5, 50 mM NaCl, 1 mM DTT, 4% glycerol, room temperature, 30 min; GST-TFs on glutathione beads, 16-mer random dsDNA library, 0.1% …; high values mean tight binding; double strand, one strand shown; scale: fold enrichment (6-mer frequency, TF over GST control)
ERG = biological target: T1, ERG (UniProt P11308)
T1 sequence: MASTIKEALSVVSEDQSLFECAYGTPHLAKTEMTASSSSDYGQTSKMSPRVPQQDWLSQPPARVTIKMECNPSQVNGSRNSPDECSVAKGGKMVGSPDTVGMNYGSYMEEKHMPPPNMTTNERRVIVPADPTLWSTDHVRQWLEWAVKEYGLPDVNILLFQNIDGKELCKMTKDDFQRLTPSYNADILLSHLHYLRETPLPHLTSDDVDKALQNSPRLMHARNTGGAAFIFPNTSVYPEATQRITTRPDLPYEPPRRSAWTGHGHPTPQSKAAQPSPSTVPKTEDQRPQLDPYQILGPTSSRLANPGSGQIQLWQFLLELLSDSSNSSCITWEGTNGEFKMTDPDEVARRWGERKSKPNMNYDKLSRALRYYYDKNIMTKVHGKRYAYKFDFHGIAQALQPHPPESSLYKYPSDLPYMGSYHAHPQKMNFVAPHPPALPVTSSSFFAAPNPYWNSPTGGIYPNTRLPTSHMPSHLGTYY

ELF1 = ELF1 (UniProt P32519)
ELK4 = biological target: T2, ELK4 (UniProt P28324-2)
T2 sequence: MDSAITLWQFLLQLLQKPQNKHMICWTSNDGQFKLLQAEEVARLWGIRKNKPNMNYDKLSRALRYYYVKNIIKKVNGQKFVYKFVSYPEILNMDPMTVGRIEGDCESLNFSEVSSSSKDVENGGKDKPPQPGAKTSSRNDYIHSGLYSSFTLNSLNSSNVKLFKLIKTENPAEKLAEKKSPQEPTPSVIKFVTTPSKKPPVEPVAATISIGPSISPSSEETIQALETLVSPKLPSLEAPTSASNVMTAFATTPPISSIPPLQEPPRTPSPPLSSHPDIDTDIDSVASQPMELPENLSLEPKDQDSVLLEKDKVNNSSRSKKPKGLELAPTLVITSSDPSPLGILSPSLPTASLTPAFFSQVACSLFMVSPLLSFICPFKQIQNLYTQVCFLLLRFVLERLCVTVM

ETV4 = biological target: T3, ETV4 (UniProt P43268)
T3 sequence: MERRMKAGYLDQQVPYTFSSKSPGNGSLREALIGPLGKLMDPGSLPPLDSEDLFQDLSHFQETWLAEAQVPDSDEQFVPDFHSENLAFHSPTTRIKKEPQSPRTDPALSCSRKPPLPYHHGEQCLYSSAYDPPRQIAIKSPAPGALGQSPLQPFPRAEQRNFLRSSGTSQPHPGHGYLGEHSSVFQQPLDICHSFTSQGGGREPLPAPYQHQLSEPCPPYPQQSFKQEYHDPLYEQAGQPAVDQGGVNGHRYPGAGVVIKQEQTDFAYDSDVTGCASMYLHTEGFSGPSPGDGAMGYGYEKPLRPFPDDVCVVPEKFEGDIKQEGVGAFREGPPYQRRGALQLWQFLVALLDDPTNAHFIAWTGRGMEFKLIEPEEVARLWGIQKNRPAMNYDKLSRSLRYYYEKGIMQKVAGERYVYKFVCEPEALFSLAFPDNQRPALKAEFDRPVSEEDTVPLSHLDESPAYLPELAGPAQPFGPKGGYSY

ETV1 = ETV1 (UniProt P50549)
ERF = biological target: T4, ERF (UniProt P50548)
T4 sequence: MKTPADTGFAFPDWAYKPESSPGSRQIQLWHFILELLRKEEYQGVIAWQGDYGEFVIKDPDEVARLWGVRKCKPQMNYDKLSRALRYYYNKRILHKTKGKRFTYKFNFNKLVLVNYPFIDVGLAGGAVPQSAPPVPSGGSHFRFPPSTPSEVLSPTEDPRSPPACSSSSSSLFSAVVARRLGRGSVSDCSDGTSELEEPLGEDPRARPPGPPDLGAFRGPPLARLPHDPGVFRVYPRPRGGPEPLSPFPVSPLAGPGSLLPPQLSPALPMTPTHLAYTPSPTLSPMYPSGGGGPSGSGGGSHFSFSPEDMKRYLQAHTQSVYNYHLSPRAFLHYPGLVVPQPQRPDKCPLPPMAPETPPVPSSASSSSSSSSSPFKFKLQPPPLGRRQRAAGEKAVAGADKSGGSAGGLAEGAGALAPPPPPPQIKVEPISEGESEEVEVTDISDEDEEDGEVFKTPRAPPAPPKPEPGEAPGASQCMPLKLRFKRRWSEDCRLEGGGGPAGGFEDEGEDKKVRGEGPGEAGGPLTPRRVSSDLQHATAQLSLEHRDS

Sequence	binding signal (ERG)	binding signal (ELF1)	binding signal (ELK4)	binding signal (ETV4)	binding signal (ETV1)	binding signal (ERF)
AGACGA	0.659	0.694	0.697	0.69	0.759	0.703
CAAGGG	0.908	0.909	0.901	0.877	0.914	0.945
GGGTCG	0.614	0.604	0.548	0.622	0.593	0.594
CGGAGT	0.341	0.299	0.346	0.307	0.335	0.326
GGTGAA	0.731	0.853	0.735	0.745	0.858	0.771
CAGTAA	0.698	0.737	0.741	0.748	0.708	0.675
GTCGTG	0.413	0.407	0.359	0.378	0.392	0.412
CAGAGA	0.602	0.625	0.732	0.633	0.607	0.625
GGAGCG	0.385	0.406	0.355	0.343	0.391	0.406
AGGCTG	0.623	0.68	0.719	0.616	0.66	0.653
ACCGAG	0.819	0.765	0.817	0.809	0.754	0.709
AGCACC	0.978	0.953	0.845	0.923	0.906	1.03
GAGTGT	0.56	0.574	0.548	0.534	0.474	0.572
GTGTAT	0.872	0.915	0.955	0.993	0.86	0.957
AGCGGA	0.82	0.715	0.671	0.782	0.792	0.744
GCTGAG	0.663	0.629	0.756	0.615	0.744	0.612
CAAGCG	0.929	0.91	0.909	0.895	0.86	0.94
GAGCGG	0.522	0.477	0.567	0.479	0.522	0.509
GGACAG	0.6	0.625	0.539	0.586	0.594	0.586
AACGGG	0.762	0.711	0.742	0.733	0.688	0.686

Sequence	binding signal (ERG)	binding signal (ELF1)	binding signal (ELK4)	binding signal (ETV4)	binding signal (ETV1)	binding signal (ERF)
GAAGAC	0.827	0.87	0.822	0.858	0.874	0.931
GCGGGG	0.485	0.467	0.486	0.467	0.519	0.435
CAAGAG	0.728	0.818	0.707	0.75	0.748	0.806
GTCGCT	0.76	0.793	0.782	0.774	0.868	0.862
GAGACT	0.389	0.395	0.425	0.404	0.39	0.408
ACTGTG	0.527	0.527	0.526	0.527	0.483	0.556
AGAACG	0.427	0.423	0.432	0.412	0.473	0.463
GCGAGC	0.878	0.953	0.838	0.894	0.923	0.979
GGCCCG	0.8	0.83	0.851	0.744	0.736	0.727
CAGTTG	0.476	0.465	0.565	0.477	0.475	0.436
GGACGT	0.629	0.544	0.526	0.565	0.61	0.553
GCCGCG	0.827	0.786	0.826	0.954	0.759	0.793
GCATGC	0.853	0.848	0.939	0.902	0.872	0.757
GGCAAA	0.965	0.898	0.892	0.919	0.95	0.876
GCGTGA	0.286	0.26	0.305	0.262	0.284	0.275
TAGGTG	0.888	0.847	0.89	0.887	0.939	0.83
AGACTG	0.481	0.526	0.575	0.548	0.558	0.511
GCAGTA	0.807	0.863	0.779	0.855	0.847	0.957
ACGGCG	0.839	0.889	0.845	0.818	0.864	0.804
TCAGTC	0.591	0.639	0.624	0.644	0.625	0.576

Sequence	binding signal (ERG)	binding signal (ELF1)	binding signal (ELK4)	binding signal (ETV4)	binding signal (ETV1)	binding signal (ERF)
ATCGGC	0.645	0.639	0.724	0.703	0.595	0.641
GCACGG	0.814	0.827	0.817	0.83	0.801	0.909
GTACGT	0.757	0.865	0.777	0.859	0.906	0.844
TAGCCG	0.838	0.909	0.89	0.866	0.855	0.896
ATCAGT	0.821	0.823	0.935	0.806	0.784	0.926
CAACGT	0.871	0.895	0.898	0.928	0.946	0.842
GGGCCG	0.596	0.6	0.59	0.61	0.579	0.667
TAGACG	0.782	0.798	0.87	0.775	0.786	0.767
TACGTG	0.637	0.661	0.717	0.703	0.697	0.75
TGCCGT	0.788	0.921	0.89	0.875	0.803	0.747
TCGTGG	0.679	0.768	0.707	0.711	0.74	0.749
ACAGCG	0.848	0.859	0.878	0.768	0.856	0.795
GGCGAA	0.721	0.695	0.699	0.696	0.682	0.686
GGTCAT	0.902	0.829	0.915	0.784	0.857	0.884
GTCAGG	0.524	0.504	0.489	0.52	0.542	0.474
AGACGG	0.361	0.348	0.362	0.343	0.373	0.374
ACAGTG	0.48	0.497	0.494	0.49	0.447	0.513
AGCGCA	0.94	0.939	0.998	0.907	0.928	0.907
ATAGGA	0.899	0.758	0.787	0.822	0.795	0.807
ACTGAG	0.745	0.814	0.863	0.766	0.769	0.769

Looked up above.
Value of CAGTTG under binding signal (ERF): 0.436
Value of ACCGAG under binding signal (ERG): 0.819
